Legend:
[1] = Odor after standing at 45° C. for 24 hours, judged by 10 monitors; settings: 10 g sample, incubator 45° C.
[2] = Rough feeling on damaged hair: MMD measured with friction tester KES-SE; design: species or system Human; settings: approx. 0.2 mL oil agent on dry damaged hair

Substance	Odor (45° C. 24 hours) [1]	rough feeling on the hair (MMD) [2]
di(cholesteryl/octyldodecyl) lauroylglutamate [Eldew CL-202]	Having an	
N-2 ethylhexylbutyramide 4-isostearic acid ester [EHBA-IS]	No odor (No odor: 0 to 2 people judged as “having an odor”)	exhibit an effect to reduce rough feeling on the hair
di(phytosteryl/octyldodecyl) lauroylglutamate [Eldew PS-203]	Having a	
N-cyclohexylbutyramide-4-isostearic acid ester [CHBA-IS]	No odor (No odor: 0 to 2 people judged as “having an odor”)	exhibit an effect to reduce rough feeling on the hair

Reference: patent publication US20190314256A1, “COSMETIC BASE INCLUDING AMIDE ALCOHOL ESTER, AND COSMETIC” (Kokyu Alcohol Kogyo Co., Ltd., priority 2016, published 2019)
